The results in this text go back to US20150362496A1.

Sequences of proteins named here, by UniProt entry; tags and fusion partners are left off. A change or cut given only in a name is not applied to a line headed by its entry.
UniProt P20908: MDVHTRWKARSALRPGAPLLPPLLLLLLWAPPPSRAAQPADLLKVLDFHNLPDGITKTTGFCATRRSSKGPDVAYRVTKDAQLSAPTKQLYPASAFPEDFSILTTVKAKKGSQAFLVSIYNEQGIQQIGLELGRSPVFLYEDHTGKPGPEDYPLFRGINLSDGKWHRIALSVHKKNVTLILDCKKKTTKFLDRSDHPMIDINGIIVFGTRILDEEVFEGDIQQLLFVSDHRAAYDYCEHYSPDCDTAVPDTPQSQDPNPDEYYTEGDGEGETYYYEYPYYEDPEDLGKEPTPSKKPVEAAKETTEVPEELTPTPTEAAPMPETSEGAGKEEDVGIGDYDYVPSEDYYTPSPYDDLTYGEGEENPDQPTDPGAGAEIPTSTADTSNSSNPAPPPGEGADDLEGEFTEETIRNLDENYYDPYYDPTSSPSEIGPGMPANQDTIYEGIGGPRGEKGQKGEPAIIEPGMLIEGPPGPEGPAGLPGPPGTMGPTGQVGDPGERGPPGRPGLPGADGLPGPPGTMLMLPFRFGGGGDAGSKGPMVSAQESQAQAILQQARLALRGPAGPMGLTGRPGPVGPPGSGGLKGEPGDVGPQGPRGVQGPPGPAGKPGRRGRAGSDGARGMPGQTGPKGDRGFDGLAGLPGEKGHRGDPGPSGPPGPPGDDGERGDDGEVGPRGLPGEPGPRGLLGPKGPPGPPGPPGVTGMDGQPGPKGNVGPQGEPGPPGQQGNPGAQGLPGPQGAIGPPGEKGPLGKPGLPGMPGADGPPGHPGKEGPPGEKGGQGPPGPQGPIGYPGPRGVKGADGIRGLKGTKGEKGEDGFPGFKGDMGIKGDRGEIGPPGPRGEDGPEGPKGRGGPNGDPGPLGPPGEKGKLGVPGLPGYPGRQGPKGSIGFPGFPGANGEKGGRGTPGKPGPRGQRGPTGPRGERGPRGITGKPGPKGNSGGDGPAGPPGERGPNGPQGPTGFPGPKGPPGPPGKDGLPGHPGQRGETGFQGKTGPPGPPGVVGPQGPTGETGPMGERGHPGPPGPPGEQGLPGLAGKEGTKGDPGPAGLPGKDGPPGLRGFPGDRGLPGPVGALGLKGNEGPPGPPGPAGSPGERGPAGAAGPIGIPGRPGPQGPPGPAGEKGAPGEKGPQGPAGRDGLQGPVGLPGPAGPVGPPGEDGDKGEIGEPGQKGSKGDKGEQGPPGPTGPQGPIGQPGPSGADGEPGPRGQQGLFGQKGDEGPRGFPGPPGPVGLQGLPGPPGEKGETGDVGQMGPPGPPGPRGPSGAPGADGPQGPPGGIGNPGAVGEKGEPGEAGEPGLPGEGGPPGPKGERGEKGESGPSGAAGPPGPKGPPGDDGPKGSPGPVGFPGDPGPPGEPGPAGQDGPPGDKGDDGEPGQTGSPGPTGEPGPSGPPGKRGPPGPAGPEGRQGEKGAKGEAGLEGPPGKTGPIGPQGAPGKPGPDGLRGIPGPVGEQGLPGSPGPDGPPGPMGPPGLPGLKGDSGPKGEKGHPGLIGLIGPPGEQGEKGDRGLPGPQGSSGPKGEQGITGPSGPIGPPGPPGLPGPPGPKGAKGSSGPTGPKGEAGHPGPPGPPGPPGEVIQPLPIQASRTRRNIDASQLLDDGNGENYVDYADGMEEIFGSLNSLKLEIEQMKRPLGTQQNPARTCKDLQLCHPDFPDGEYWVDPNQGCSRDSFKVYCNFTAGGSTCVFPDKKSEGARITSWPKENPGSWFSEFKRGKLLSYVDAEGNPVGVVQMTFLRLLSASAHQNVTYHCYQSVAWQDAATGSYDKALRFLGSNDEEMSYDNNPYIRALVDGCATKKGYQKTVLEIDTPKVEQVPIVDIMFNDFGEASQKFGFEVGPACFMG

The target in the assay is recombinant proCOL5A1 (UniProt P20908). Nature of the assay: Western blot on recombinant proteins.

These are yes or no findings as the source states them, for the method shown.

B1: 1E8.33 monoclonal antibody (antibody, V domains shown)
VH: EVQLQESGPELVKTGSSVKISCKASGYSFTGYYMHWVKQSQGKSLEWIGYINCYNGATSYNRNFKGKATFTVDTSSSTAYMQFNSLTSGDSAVYYCAIWDYEFHVMDYWGQRTSLTVSS
VL: ENVLTQSPAIMSASLGEKVTMSCRASSSVNYMYWYQQKSDASPKLWIYYTSNLAPGVPARFSGSGSGNSYSLTISSMEGEDADTYYCQQFTSSPWTFGGGTKLEIK
As for B1, the binding entry is given as “no binding”.
